Fewer than 10 of roughly 6,900 compounds were called active. Calls follow the shape of the dose curve; as a rule, active = well fitted curve in the direction sought with a large enough effect; inconclusive = small, poorly fitted or top-dose-only effect, or another doubt; inactive = no such curve, though single readings can be large or run the other way. Some of the results follow.
target: Metallo-beta-lactamase type 2 (Klebsiella pneumoniae) (UniProt C7C422); assay: qHTS to identify inhibitors of the New Delhi Metallo-beta-lactamase (NDM): primary screen against the NCATS Gemini Collection; settings: NDM-1 enzyme, meropenem hydrolysis, absorbance 300 nm; at 38.4 µM (top of the series) unless noted; also: % of control where 0% means no effect
In short: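 NDM-1 at 2 nM final in 50 mM HEPES pH 7.0, 1 uM ZnSO4, 0.01% Tween20, preincubated >30 min with compound. Meropenem 50 uM final added; absorbance at 300 nm after 30 min.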

Protein sequences, listed by entry. Tags and fused reporters are not part of them. Lines headed by an entry give the natural chain unless they say otherwise; changes in a name come on top.
UniProt C7C422: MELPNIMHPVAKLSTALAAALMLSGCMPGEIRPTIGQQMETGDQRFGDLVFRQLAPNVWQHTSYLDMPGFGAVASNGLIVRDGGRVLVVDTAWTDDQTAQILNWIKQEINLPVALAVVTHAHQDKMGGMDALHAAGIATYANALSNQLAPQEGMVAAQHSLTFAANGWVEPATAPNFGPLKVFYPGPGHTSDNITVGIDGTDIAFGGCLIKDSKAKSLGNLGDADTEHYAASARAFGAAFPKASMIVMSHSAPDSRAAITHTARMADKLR

Activity % (negative = inhibition), inactive:
COc1ccc(OC)c([C@@H]2C[C@H](NC(C)=O)C[C@H](Cc3ccccc3)O2)c1 -2.32%
CCn1ccnc1CN(C)C(=O)c1ccc2oc(-c3ccc(C(F)(F)F)cc3)nc2c1 3.07%
CC(C)N(C(=O)c1ccccc1-c1cc(NC2CC2)nc(N)n1)C(C)C 18.4%
Cn1ncc2c(N3CCN(S(N)(=O)=O)CC3)nc(C3CCCC3)nc21 14.1%
COC(=O)CCNC(=O)C1CN(S(=O)(=O)c2cccs2)CC12CCCCC2 (stereo not given) -0.861%
COc1cc(OC(F)(F)F)ccc1C(=O)N1CCC(C)(C(=O)O)CC1 -12.9%
CC(C)CN(C1CCN(C)CC1)C1CN(C(=O)c2cccs2)C1 47.2%
Cc1noc(C)c1S(=O)(=O)NCCc1noc(-c2ccccc2)n1 37.7%
O=C(Nc1ccc(F)cc1)N[C@H]1[C@H](O)[C@@H](N2CCOCC2)[C@@H]2OC[C@H]1O2 17% [at 57.5 µM]
CNC(=O)[C@@H]1CN(C(=O)c2n[nH]c3ccccc23)C[C@H]1COC 22.7%
CC(C)n1cnnc1CC1CCN(S(=O)(=O)Cc2ccccc2)C1 (stereo not given) 0.162%
CNC(=O)c1cc[nH]c1C1CCCN(C(=O)CCc2nc3ccccc3s2)C1 (stereo not given) 0.27%
COc1cccc(CN2Cc3cc(NS(=O)(=O)c4ccccc4)ccc3OCC2=O)c1OC 7.04%
CCS(=O)(=O)N1CCC2(CCC2OC)CC1 (stereo not given) 27.6%
Cc1noc(-c2cccs2)c1C(=O)NCc1ccco1 9.29%
O=C1CCN(C(=O)CCCc2ccccc2)CCCC(CO)CCN1 (stereo not given) 23.5%
Cc1ccc(C#N)c(N2CCN(C3CCCC3)C(CCO)C2)n1 (stereo not given) -2.55%
CC(=O)N1CC[C@]2(O)CCN(C(=O)CCCc3ccc(F)cc3)C[C@@H]2C1 -2.63%
COCCNc1nc(C)nc2c1CCN(C(=O)c1ccoc1)CC2 5.77%
CCCc1cnc(C)nc1N1CC[C@@H](NC(=O)c2cnccn2)[C@H](O)C1 5.84%
CN(Cc1ccccc1)c1ccc(C(=O)N2CCC(CN3CCCC3=O)CC2)cn1 20.2%
COc1ccc(NC(=O)Nc2cnc3c(c2)CCC3)cc1 3.07%
COCc1nc(CCNC(=O)C2CC2)no1 -2.25%
COCCN1CC2(CCCN(Cc3cc(C(C)(C)C)n[nH]3)C2)CCC1=O (stereo not given) -1.45%
C[C@@H]1CN(C(=O)c2ccc(-c3ccn[nH]3)cc2)CC[C@@]1(O)C1CCOCC1 2.84%

Of the compounds above, 2 contain a CF3 group:
Activity % (negative = inhibition), inactive:
CCn1ccnc1CN(C)C(=O)c1ccc2oc(-c3ccc(C(F)(F)F)cc3)nc2c1 3.07%
COc1cc(OC(F)(F)F)ccc1C(=O)N1CCC(C)(C(=O)O)CC1 -12.9%
